PubChem BioAssay AID1259262 | Sanger Institute | 2017

Purpose: 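Confirming kinase hits that combine with targeted drugs in colorectal cancer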 (follow-up of hits)
System: LS513 human colorectal cancer cells
Reagent: single siRNA against human genes
Treatment: anchor drug or DMSO vehicle: cetuximab 5 µg/ml, trametinib 10 nM or BYL719 1 µM; exposure length not given
Read-out: 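Per anchor drug, a replicate-averaged synergy score, plus viability as a fraction of the non-targeting control siRNA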
Reading the numbers: synergy score with trametinib and synergy score with BYL719 and synergy score with cetuximab: higher = stronger synergistic loss of viability with drug; viability, siRNA with trametinib and viability, siRNA with vehicle only: higher = more viable cells
Hit rule: 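Called active if at least one of the three drugs gives a synergy score over 0.10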
Calls: active = synergy with at least one drug; inactive = no synergy with any drug
In all, the deposit lists 160 reagents; this is an unselected part. 93 of all reagents (58%) count as active. 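Calls refer to single siRNAs; gene-level validation required two or more siRNAs in several lines; synergy score formula unstated.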 Viability is capped at 1. Not stated in the record: the amount of reagent, the time to read-out.

| gene | PubChem SID | synergy score with trametinib | synergy score with BYL719 | synergy score with cetuximab | viability, siRNA with trametinib (fraction of control) | viability, siRNA with vehicle only (fraction of control) | Outcome |
| --- | --- | --- | --- | --- | --- | --- | --- |
| IKBKB (inhibitor of nuclear factor kappa B kinase subunit beta) | SID56475899 | 0.132 | -0.164 | -0.103 | 0.324 | 0.838 | active |
| IKBKB (inhibitor of nuclear factor kappa B kinase subunit beta) | SID56475900 | -0.0784 | -0.157 | -0.0219 | 0.513 | 0.799 | inactive |
| IKBKB (inhibitor of nuclear factor kappa B kinase subunit beta) | SID56475901 | 0.0209 | -0.217 | -0.167 | 0.412 | 0.796 | inactive |
| IKBKB (inhibitor of nuclear factor kappa B kinase subunit beta) | SID56475902 | 0.0367 | -0.172 | -0.0751 | 0.272 | 0.567 | inactive |
| MARK3 (microtubule affinity regulating kinase 3) | SID56475931 | 0.13 | -0.116 | 0.0567 | 0.355 | 0.892 | active |
| MARK3 (microtubule affinity regulating kinase 3) | SID56475932 | 0.128 | -0.0503 | -0.11 | 0.415 | 1 | active |
| MARK3 (microtubule affinity regulating kinase 3) | SID56475933 | -0.121 | -0.174 | -0.0758 | 0.532 | 0.757 | inactive |
| MARK3 (microtubule affinity regulating kinase 3) | SID56475934 | 0.309 | -0.0976 | -0.00782 | 0.157 | 0.858 | active |
| PRAG1 (PEAK1 related, kinase-activating pseudokinase 1) | SID56478455 | 0.166 | -0.188 | -0.00391 | 0.267 | 0.797 | active |
| PRAG1 (PEAK1 related, kinase-activating pseudokinase 1) | SID56478456 | 0.197 | 0.119 | -0.0101 | 0.346 | 1 | active |
| PRAG1 (PEAK1 related, kinase-activating pseudokinase 1) | SID56478457 | -0.135 | -0.0707 | -0.178 | 0.561 | 0.783 | inactive |
| PRAG1 (PEAK1 related, kinase-activating pseudokinase 1) | SID56478458 | 0.0222 | -0.216 | -0.11 | 0.522 | 1 | inactive |
| GTF2H1 (general transcription factor IIH subunit 1) | SID56478227 | -0.0136 | -0.2 | -0.0321 | 0.449 | 0.801 | inactive |
| GTF2H1 (general transcription factor IIH subunit 1) | SID56478228 | 0.101 | -0.18 | 0.0235 | 0.443 | 1 | active |
| GTF2H1 (general transcription factor IIH subunit 1) | SID56478229 | -0.147 | -0.13 | -0.0549 | 0.669 | 0.959 | inactive |
| GTF2H1 (general transcription factor IIH subunit 1) | SID56478230 | 0.13 | -0.0855 | -0.0384 | 0.0909 | 0.405 | active |

Records listed so far with an active call, once more:
| gene | PubChem SID | synergy score with trametinib | synergy score with BYL719 | synergy score with cetuximab | viability, siRNA with trametinib (fraction of control) | viability, siRNA with vehicle only (fraction of control) | Outcome |
| --- | --- | --- | --- | --- | --- | --- | --- |
| IKBKB (inhibitor of nuclear factor kappa B kinase subunit beta) | SID56475899 | 0.132 | -0.164 | -0.103 | 0.324 | 0.838 | active |
| MARK3 (microtubule affinity regulating kinase 3) | SID56475931 | 0.13 | -0.116 | 0.0567 | 0.355 | 0.892 | active |
| MARK3 (microtubule affinity regulating kinase 3) | SID56475932 | 0.128 | -0.0503 | -0.11 | 0.415 | 1 | active |
| MARK3 (microtubule affinity regulating kinase 3) | SID56475934 | 0.309 | -0.0976 | -0.00782 | 0.157 | 0.858 | active |
| PRAG1 (PEAK1 related, kinase-activating pseudokinase 1) | SID56478455 | 0.166 | -0.188 | -0.00391 | 0.267 | 0.797 | active |
| PRAG1 (PEAK1 related, kinase-activating pseudokinase 1) | SID56478456 | 0.197 | 0.119 | -0.0101 | 0.346 | 1 | active |
| GTF2H1 (general transcription factor IIH subunit 1) | SID56478228 | 0.101 | -0.18 | 0.0235 | 0.443 | 1 | active |
| GTF2H1 (general transcription factor IIH subunit 1) | SID56478230 | 0.13 | -0.0855 | -0.0384 | 0.0909 | 0.405 | active |

Next entries follow.
| gene | PubChem SID | synergy score with trametinib | synergy score with BYL719 | synergy score with cetuximab | viability, siRNA with trametinib (fraction of control) | viability, siRNA with vehicle only (fraction of control) | Outcome |
| --- | --- | --- | --- | --- | --- | --- | --- |
| SYK (spleen associated tyrosine kinase) | SID56475471 | 0.114 | 0.0869 | -0.0248 | 0.252 | 0.672 | active |
| SYK (spleen associated tyrosine kinase) | SID56475472 | 0.171 | -0.156 | 0.0182 | 0.217 | 0.713 | active |
| SYK (spleen associated tyrosine kinase) | SID56475473 | 0.293 | -0.04 | -0.00585 | 0.0735 | 0.675 | active |
| SYK (spleen associated tyrosine kinase) | SID56475474 | 0.146 | -0.144 | -0.105 | 0.398 | 1 | active |
| AK2 (adenylate kinase 2) | SID56477903 | 0.144 | -0.343 | -0.187 | 0.277 | 0.774 | active |
| AK2 (adenylate kinase 2) | SID56477904 | 0.435 | -0.226 | -0.0795 | 0.109 | 1 | active |
| AK2 (adenylate kinase 2) | SID56477905 | 0.0929 | -0.226 | -0.11 | 0.451 | 1 | inactive |
| AK2 (adenylate kinase 2) | SID56477906 | 0.337 | -0.00535 | 0.015 | 0.166 | 0.924 | active |
| HUNK (hormonally up-regulated Neu-associated kinase) | SID56476395 | 0.112 | 0.0894 | -0.0735 | 0.238 | 0.644 | active |
| HUNK (hormonally up-regulated Neu-associated kinase) | SID56476396 | 0.211 | 0.0531 | 0.0833 | 0.0832 | 0.541 | active |
| HUNK (hormonally up-regulated Neu-associated kinase) | SID56476397 | 0.0856 | -0.0991 | -0.0665 | 0.291 | 0.693 | inactive |
| HUNK (hormonally up-regulated Neu-associated kinase) | SID56476398 | 0.135 | -0.0437 | 0.0247 | 0.195 | 0.608 | active |
| NR2F2 (nuclear receptor subfamily 2 group F member 2) | SID134229233 | 0.162 | -0.0816 | -0.0178 | 0.381 | 1 | active |
| NR2F2 (nuclear receptor subfamily 2 group F member 2) | SID134229234 | 0.129 | -0.0457 | -0.11 | 0.415 | 1 | active |
| NR2F2 (nuclear receptor subfamily 2 group F member 2) | SID134229235 | 0.122 | -0.226 | -0.11 | 0.422 | 1 | active |
| NR2F2 (nuclear receptor subfamily 2 group F member 2) | SID134229236 | 0.349 | 0.00271 | 0.0193 | 0.144 | 0.906 | active |
| MPP3 (MAGUK p55 scaffold protein 3) | SID56478207 | -0.0893 | -0.0283 | -0.0152 | 0.577 | 0.898 | inactive |
| MPP3 (MAGUK p55 scaffold protein 3) | SID56478208 | -0.0078 | -0.12 | -0.111 | 0.511 | 0.926 | inactive |
| MPP3 (MAGUK p55 scaffold protein 3) | SID56478209 | 0.355 | -0.068 | 0.0564 | 0.0604 | 0.764 | active |
| MPP3 (MAGUK p55 scaffold protein 3) | SID56478210 | 0.221 | -0.0354 | 0.0102 | 0.32 | 0.996 | active |
| PFKFB3 (6-phosphofructo-2-kinase/fructose-2,6-biphosphatase 3) | SID56477763 | 0.0534 | -0.165 | 0.00602 | 0.237 | 0.535 | inactive |
| PFKFB3 (6-phosphofructo-2-kinase/fructose-2,6-biphosphatase 3) | SID56477764 | 0.132 | -0.0759 | 0.00211 | 0.121 | 0.465 | active |
| PFKFB3 (6-phosphofructo-2-kinase/fructose-2,6-biphosphatase 3) | SID56477765 | -0.061 | -0.294 | -0.225 | 0.46 | 0.733 | inactive |
| PFKFB3 (6-phosphofructo-2-kinase/fructose-2,6-biphosphatase 3) | SID135612150 | 0.322 | -0.0675 | -0.0856 | 0.214 | 0.986 | active |
